# Assay results: PubChem BioAssay AID504834 (National Center for Advancing Translational Sciences (NCATS), 2011)
# Among all 320,000 compounds or so, about 22,000 (6.9%) were called active. This list was built around the results that the source calls inconclusive (neither active nor inactive); the mix of calls is not that of the screen. Calls follow the shape of the dose curve; as a rule, active = well fitted inhibition curve with a large enough effect; inconclusive = small, poorly fitted or top-dose-only effect, or another doubt; inactive = no such curve, though single readings can be large or run the other way. Where the call is inconclusive, the potency comes from a doubtful curve fit.
# Test: Primary qHTS for delayed death inhibitors of the malarial parasite plastid, 96 hour incubation
# Details: P. falciparum luciferase reporter growth; series mostly up to 28.7 µM
# Method in brief: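 Plates of compound plus infected erythrocytes (2% hematocrit, 0.05% parasitemia final) incubate 96 hours, 37 C, 5% CO2. Detection reagent added; reduced luminescence from the parasites' luciferase reporter flags inhibition.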
# Potency is read from the fitted curve at half-maximal effect.
row,SMILES,Potency
1,COc1ccc(/C=C/C(=O)NC2CCN(Cc3ccccc3)CC2)cc1OC,"inconclusive: 18.5 µM [inhibitor, single point]"
2,COc1ccc(NC(=S)NC2CCCCCC2)c(OC)c1,inactive
3,COc1ccc(S(=O)(=O)Nc2ccccc2C(=O)OC2CCCN(C)C2)cc1OC (stereo not drawn),"inconclusive: 18.5 µM [inhibitor, single point]"
4,Nc1cccc2c1C(=O)N(C(=O)/C=C/c1cccc(F)c1)C2=O,inactive
5,C#CCOCCOCCOCCNc1nc(N2CCN(C(=O)[C@H](Cc3ccc(O)cc3)n3cc([C@@H](N)C(C)CC)nn3)CC2)nc(N2CCN(C(=O)[C@H](Cc3cc4ccccc4[nH]3)n3cc([C@@H](N)Cc4ccc(O)cc4)nn3)CC2)n1 (stereo partly drawn),"inconclusive: 10.4 µM [inhibitor, partial curve, poor fit]"
6,C/C(=N\Nc1nc2ccc(Cl)cc2o1)c1ccccc1,inactive
7,Cc1c(CCC(=O)NCCCC(=O)O)c(=O)oc2cc3oc4c(c3cc12)CCCC4,inactive
8,COc1ccccc1C(=O)NC1CCCc2ccccc21 (stereo not drawn),"inconclusive: 14.7 µM [inhibitor, partial curve, poor fit]"
9,O=c1[nH]c(/C=C\c2cccnc2)c([N+](=O)[O-])c(=O)[nH]1,inactive
10,O=C(COC(=O)c1ccc(Cl)nc1)Nc1ccc(S(=O)(=O)N2CCCC2)cc1,"inconclusive: 11.7 µM [inhibitor, single point]"
11,Cc1ccc(-n2nc3c(N4CCC(C(=O)N5CCCCCC5)CC4)nnc(C)c3c2C)cc1,active: 11.7 µM
12,Cc1oc(-c2ccc(Cl)cc2)nc1CS(=O)CC(=O)NCCCN1CCOCC1 (stereo not drawn),"inconclusive: 18.5 µM [inhibitor, single point]"
13,CC(=O)Nc1ccc(Nc2nc(C)c([N+](=O)[O-])c(Nc3ccccc3)n2)cc1,"inconclusive: 18.5 µM [inhibitor, single point]"
14,Cc1ccc(C(OCC(O)CNC(CO)C(O)c2ccc([N+](=O)[O-])cc2)c2ccccc2)cc1 (stereo not drawn),"inconclusive: 0.657 µM [inhibitor, full curve, poor fit]"
15,CCCCCC(=O)Nc1cccc2ccccc12,"inconclusive: 18.5 µM [inhibitor, single point]"
16,COc1ccc(C(=O)CC(=O)C(=O)Nc2ccccc2OC)cc1,inactive
17,Cc1cccc(OCCC(=O)Nc2ccc(S(=O)(=O)N3CCCC3)cc2)c1,inactive
18,O=C(NCc1ccco1)/C(=C/c1cccc([N+](=O)[O-])c1)NC(=O)c1ccco1,inactive
19,COc1ccc(F)cc1S(=O)(=O)NCC(c1ccco1)N1CCc2ccccc2C1 (stereo not drawn),"inconclusive: 18.5 µM [inhibitor, single point]"
20,COc1ccc(OCCSc2ncccn2)cc1,"inconclusive: 2.33 µM [inhibitor, partial curve, poor fit]"
21,C#CC[N+](C)(C)CCN1C(=O)C2C(c3ccccc3)C=CC(c3ccccc3)C2C1=O (stereo not drawn),"inconclusive: 18.5 µM [inhibitor, single point]"
22,CSCc1cc(N2CCOCC2)nc(SCc2ccc(Cl)c(Cl)c2)n1,"inconclusive: 11.7 µM [inhibitor, partial curve, poor fit]"
23,Cn1c(=O)c2c(ncn2CC(=O)OCC(=O)NCCc2ccccc2)n(C)c1=O,inactive

row,SMILES,Potency
1,CC1CCN(S(=O)(=O)c2ccc(C(=O)Nc3nnc(-c4ccncc4)o3)cc2)CC1,"inconclusive: 3.29 µM [inhibitor, full curve, poor fit]"
2,COc1ccc(OC)c(-n2c(-c3ccccc3)n[nH]c2=S)c1,"inconclusive: 8.28 µM [inhibitor, partial curve, poor fit]"
3,Cc1ccc(NP(=O)(c2ccc(N(C)C)cc2NC(=O)c2cccs2)N2CCOCC2)cc1Cl (stereo not drawn),"inconclusive: 2.94 µM [inhibitor, full curve, poor fit]"
4,O=Cc1cc(-c2ccccc2)[nH]c1-c1ccccc1,inactive
5,COc1cccc(/C=N/n2c(N)c(S(=O)(=O)c3cccs3)c3nc4ccccc4nc32)c1OC,"inconclusive: 7.38 µM [inhibitor, partial curve]"
6,CCOC(=O)C1(CCOC)CCN(Cc2cc3ccccc3s2)CC1,inactive
7,CCCN(CCC)S(=O)(=O)c1ccc(NC(=O)C2CCCO2)cc1 (stereo not drawn),active: 9.28 µM
8,COc1ccc2cc(C(=O)C3CCCN(C(=O)c4cnn(C(C)C)c4)C3)ccc2c1 (stereo not drawn),"inconclusive: 18.5 µM [inhibitor, single point]"
9,C#CCN(C)CC/C=C1\c2ccccc2CSc2ccccc21,"inconclusive: 0.657 µM [inhibitor, partial curve, poor fit]"
10,COC(=O)C1=C(C(=O)OC)[C@@H]2N(C)c3ccccc3[C@@]23C[C@@H](CO)N(C(=O)NCCBr)C3=N1,"inconclusive: 2.62 µM [inhibitor, single point]"
11,Cc1cc(C)nc(SCC(=O)N(C)C)n1,"inconclusive: 18.5 µM [inhibitor, single point]"
12,CCOC(=O)N1CCC(N2CCCC(C(=O)c3cccc(OC(C)C)c3)C2)CC1 (stereo not drawn),"inconclusive: 18.5 µM [inhibitor, single point]"
13,CCN(CC(=O)Nc1c(F)cccc1F)C(=O)c1nc2nc(C)cc(C)n2n1,inactive
14,Cc1ccc(NC(=S)N(Cc2ccco2)C(C)c2cccs2)c(Cl)c1 (stereo not drawn),"inconclusive: 18.5 µM [inhibitor, single point]"
15,O=S(=O)(NCCc1ccccc1)c1ccc(S(=O)(=O)N2CCCCC2)cc1,"inconclusive: 18.5 µM [inhibitor, single point]"
16,CS(=O)(=O)c1ccc(Cl)c(NC(=O)CN2CCCC2c2ccc3c(c2)OCCCO3)c1 (stereo not drawn),"inconclusive: 16.5 µM [inhibitor, single point]"
17,CCOC(=O)c1c(NC(=O)Cn2nc(C(F)(F)F)cc2C)sc(C)c1C,inactive
18,Cc1nn(Cc2ccc(F)cc2)c(C)c1NC(=O)c1nn(C)cc1Cl,"inconclusive: 4.15 µM [inhibitor, single point]"
19,CCOc1ccc(/C=C/C(=O)Nc2cccc(C(C)=O)c2)cc1,"inconclusive: 18.5 µM [inhibitor, single point]"
20,Cc1cc(C)c(C)c(S(=O)(=O)Nc2ccccc2C(=O)O)c1C,"inconclusive: 0.0037 µM [inhibitor, full curve, poor fit]"
21,Cc1c(NC(=O)CSc2ncn[nH]2)c(=O)n(-c2ccccc2)n1C,"inconclusive: 14.7 µM [inhibitor, single point]"
22,O=C(CCCn1cnc([N+](=O)[O-])n1)Nc1cccc2ccccc12,"inconclusive: 13.1 µM [inhibitor, single point]"
23,O=C(Nc1cccc(S(=O)(=O)N2CCCC2)c1)c1ccccc1OC(F)F,"inconclusive: 18.5 µM [inhibitor, single point]"

row,SMILES,Potency
1,COC(=O)C1=C(c2ccc(F)cc2OCc2ccccc2)C[C@@H]2CC[C@H]1N2C(=O)NCCCc1ccccc1,active: 5.22 µM
2,COC(=O)C1=C(C)NC(=O)NC1c1cc(Cl)ccc1OC (stereo not drawn),"inconclusive: 0.329 µM [inhibitor, full curve]"
3,CN(C)/C=N/c1cc(=O)[nH]c(=O)n1C,inactive
4,CCOc1ccc(NC(=O)c2cc3ccccc3cc2OC)cc1,inactive
5,O=C(c1ccc2c(c1)OCO2)N1CCC2(CC1)Oc1ccc(F)cc1C(=O)C21CC(c2cccnc2)=NO1 (stereo not drawn),"inconclusive: 14.7 µM [inhibitor, single point]"
6,CC(C)(C)NC(=O)c1cc(NC(=O)c2ccco2)cc(NC(=O)c2ccco2)c1,"inconclusive: 11.7 µM [inhibitor, partial curve, poor fit]"
7,Cn1c(=O)c2c(Nc3ccc(F)cc3)cc(=O)n(-c3ccccc3)c2n(C)c1=O,"inconclusive: 2.33 µM [inhibitor, full curve, poor fit]"
8,COC(=O)CCC(=O)OC1(C)C(=O)C=C2C=C(C3CC3)N(CCCOC(C)C)C=C2C1=O (stereo not drawn),active: 1.85 µM
9,CCOc1nc(N2CCOCC2)nc(N2CCOCC2)n1,inactive
10,O=C(C[n+]1cc(-c2ccc(F)cc2)n2c1CCC2)Nc1nc(-c2ccccc2)cs1,"inconclusive: 9.28 µM [inhibitor, single point]"
11,CCOc1ccc(CNC(=O)c2nnc(CS(=O)(=O)c3ccccc3)o2)cc1OC,"inconclusive: 18.5 µM [inhibitor, single point]"
12,COc1ccc(Cc2nc3ccc(C(=O)N4CCCN(C=O)CC4)cc3o2)cc1,inactive
13,CCCC(C)NC(=O)C1c2ccccc2Oc2ccccc21 (stereo not drawn),"inconclusive: 1.65 µM [inhibitor, full curve]"
14,CCCOc1cccc(C2/C(=C(/O)c3ccccc3)C(=O)C(=O)N2CCN(C)C)c1 (stereo not drawn),"inconclusive: 0.0928 µM [inhibitor, full curve, poor fit]"
15,O=C(NCc1ccc(CNC(=O)c2ccco2)cc1)c1ccco1,active: 11.7 µM
16,O=C(Cn1nc(Cc2cccnc2)c2ccccc2c1=O)N1CCN(C(=O)c2ccco2)CC1,inactive
17,Cc1ccc2c(c1)N(CC(=O)NCCc1ccc(Cl)cc1)C(=O)c1cccnc1O2,active: 10.4 µM
18,CC(/C=N/NC(=O)c1ccncc1)=C\c1ccc(C(C)C)cc1,active: 5.22 µM
19,CCOc1ccc2nc(NC(=O)CN3CCN(C)CC3)sc2c1,"inconclusive: 13.1 µM [inhibitor, partial curve, poor fit]"
20,Cc1ccc(/C=N/NC(=O)c2ccccn2)s1,inactive
21,O=C(NCCCO)c1c(O)c2cccc3c2n(c1=O)CCC3,inactive
22,COc1ccc(-c2nn(-c3ccccc3)cc2/C=N/Nc2ccc(S(N)(=O)=O)cc2[N+](=O)[O-])cc1OC,"inconclusive: 7.38 µM [inhibitor, partial curve, poor fit]"

# Exported tab-delimited: 2 of the compounds above.
row	SMILES	Potency
7	Cn1c(=O)c2c(Nc3ccc(F)cc3)cc(=O)n(-c3ccccc3)c2n(C)c1=O	inconclusive: 2.33 µM [inhibitor, full curve, poor fit]
16	O=C(Cn1nc(Cc2cccnc2)c2ccccc2c1=O)N1CCN(C(=O)c2ccco2)CC1	inactive
